Results reported in publication PMC5192434.
Results are given in words; binding and its absence hold for the method and conditions named. In cells and extracts the contact can be indirect. Some entries that bind do so weakly or less than the wild type.

Protein sequences, listed by entry. Tags and fused reporters are not part of them.
UniProt Q13029: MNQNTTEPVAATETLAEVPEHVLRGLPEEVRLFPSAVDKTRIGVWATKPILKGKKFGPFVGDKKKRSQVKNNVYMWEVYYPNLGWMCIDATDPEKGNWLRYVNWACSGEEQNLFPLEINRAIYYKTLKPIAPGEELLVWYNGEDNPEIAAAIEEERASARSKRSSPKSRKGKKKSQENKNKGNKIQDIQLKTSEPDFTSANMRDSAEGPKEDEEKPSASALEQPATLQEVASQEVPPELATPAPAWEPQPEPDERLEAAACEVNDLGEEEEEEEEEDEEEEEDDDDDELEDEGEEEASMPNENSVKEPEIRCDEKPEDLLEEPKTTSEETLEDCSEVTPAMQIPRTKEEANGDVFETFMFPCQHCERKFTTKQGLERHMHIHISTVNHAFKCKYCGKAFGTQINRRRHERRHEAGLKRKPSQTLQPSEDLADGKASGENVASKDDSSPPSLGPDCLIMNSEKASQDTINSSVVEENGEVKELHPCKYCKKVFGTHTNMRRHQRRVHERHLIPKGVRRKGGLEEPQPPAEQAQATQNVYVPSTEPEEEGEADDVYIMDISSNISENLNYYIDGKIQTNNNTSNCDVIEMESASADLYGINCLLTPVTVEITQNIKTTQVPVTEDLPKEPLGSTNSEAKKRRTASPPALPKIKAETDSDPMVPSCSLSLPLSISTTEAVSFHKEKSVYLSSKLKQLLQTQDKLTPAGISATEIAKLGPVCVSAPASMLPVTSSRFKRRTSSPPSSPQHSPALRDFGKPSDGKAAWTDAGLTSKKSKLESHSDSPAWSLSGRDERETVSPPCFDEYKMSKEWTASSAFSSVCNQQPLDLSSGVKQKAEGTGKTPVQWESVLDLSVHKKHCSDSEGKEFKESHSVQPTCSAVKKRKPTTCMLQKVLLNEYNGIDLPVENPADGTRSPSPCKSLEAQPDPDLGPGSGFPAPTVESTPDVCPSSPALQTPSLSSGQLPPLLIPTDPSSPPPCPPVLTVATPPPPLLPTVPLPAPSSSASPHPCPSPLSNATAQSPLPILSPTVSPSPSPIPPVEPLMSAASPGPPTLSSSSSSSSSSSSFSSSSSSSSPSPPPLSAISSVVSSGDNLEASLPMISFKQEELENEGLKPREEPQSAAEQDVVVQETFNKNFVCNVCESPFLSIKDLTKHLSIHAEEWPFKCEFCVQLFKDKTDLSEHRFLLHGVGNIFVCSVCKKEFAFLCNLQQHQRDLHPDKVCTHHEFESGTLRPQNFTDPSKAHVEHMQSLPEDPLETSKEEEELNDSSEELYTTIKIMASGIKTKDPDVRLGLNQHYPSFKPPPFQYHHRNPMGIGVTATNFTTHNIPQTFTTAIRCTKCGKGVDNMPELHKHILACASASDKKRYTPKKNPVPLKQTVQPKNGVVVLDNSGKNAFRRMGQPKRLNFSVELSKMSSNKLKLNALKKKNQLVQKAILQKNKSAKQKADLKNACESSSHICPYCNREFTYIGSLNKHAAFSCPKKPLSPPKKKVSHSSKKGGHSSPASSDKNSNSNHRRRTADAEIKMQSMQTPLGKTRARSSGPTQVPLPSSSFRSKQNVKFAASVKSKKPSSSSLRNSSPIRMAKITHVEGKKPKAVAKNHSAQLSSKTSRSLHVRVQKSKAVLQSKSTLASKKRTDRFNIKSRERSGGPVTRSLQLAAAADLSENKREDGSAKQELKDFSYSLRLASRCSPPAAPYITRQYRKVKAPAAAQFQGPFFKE
UniProt A2A7B5: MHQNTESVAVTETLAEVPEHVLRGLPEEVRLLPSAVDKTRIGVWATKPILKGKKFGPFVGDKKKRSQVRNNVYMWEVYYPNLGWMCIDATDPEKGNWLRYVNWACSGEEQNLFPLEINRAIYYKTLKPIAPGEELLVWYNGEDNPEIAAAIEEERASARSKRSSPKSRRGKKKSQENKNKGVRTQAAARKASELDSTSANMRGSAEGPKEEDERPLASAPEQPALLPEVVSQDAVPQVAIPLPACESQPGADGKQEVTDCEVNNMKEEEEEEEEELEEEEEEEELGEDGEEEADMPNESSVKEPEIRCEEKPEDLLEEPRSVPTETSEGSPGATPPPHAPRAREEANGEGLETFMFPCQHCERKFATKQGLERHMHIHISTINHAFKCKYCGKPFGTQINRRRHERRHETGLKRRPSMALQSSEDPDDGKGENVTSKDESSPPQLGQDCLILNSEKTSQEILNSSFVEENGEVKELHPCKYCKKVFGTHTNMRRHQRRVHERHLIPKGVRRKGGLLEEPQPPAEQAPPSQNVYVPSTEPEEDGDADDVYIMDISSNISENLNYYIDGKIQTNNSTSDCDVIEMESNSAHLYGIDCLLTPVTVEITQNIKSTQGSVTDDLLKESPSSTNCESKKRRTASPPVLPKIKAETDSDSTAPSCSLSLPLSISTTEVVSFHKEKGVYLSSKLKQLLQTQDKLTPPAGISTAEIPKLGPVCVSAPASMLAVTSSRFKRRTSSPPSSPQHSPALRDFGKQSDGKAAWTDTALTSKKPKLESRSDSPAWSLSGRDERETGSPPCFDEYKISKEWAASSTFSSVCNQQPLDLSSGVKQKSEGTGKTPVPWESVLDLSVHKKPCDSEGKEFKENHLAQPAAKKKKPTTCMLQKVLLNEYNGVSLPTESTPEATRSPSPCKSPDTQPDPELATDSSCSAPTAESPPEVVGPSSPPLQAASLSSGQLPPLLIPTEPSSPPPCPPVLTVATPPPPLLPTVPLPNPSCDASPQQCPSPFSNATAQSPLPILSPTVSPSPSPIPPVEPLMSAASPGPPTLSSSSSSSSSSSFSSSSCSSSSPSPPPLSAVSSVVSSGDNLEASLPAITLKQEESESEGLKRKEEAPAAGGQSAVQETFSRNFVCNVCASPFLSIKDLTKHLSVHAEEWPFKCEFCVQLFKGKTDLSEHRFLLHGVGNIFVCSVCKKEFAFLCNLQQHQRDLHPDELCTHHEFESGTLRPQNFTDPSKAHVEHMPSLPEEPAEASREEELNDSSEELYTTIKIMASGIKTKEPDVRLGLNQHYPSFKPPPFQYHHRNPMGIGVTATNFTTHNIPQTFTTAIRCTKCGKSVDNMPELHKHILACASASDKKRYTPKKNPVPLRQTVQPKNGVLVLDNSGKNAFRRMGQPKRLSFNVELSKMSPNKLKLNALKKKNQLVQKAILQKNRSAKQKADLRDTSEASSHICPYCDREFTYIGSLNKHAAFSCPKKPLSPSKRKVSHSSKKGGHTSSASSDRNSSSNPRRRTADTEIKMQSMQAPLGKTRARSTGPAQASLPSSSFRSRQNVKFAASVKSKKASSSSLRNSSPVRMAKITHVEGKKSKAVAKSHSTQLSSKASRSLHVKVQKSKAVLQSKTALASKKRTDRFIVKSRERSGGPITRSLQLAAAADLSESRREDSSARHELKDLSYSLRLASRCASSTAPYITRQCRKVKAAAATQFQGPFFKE
UniProt P03372: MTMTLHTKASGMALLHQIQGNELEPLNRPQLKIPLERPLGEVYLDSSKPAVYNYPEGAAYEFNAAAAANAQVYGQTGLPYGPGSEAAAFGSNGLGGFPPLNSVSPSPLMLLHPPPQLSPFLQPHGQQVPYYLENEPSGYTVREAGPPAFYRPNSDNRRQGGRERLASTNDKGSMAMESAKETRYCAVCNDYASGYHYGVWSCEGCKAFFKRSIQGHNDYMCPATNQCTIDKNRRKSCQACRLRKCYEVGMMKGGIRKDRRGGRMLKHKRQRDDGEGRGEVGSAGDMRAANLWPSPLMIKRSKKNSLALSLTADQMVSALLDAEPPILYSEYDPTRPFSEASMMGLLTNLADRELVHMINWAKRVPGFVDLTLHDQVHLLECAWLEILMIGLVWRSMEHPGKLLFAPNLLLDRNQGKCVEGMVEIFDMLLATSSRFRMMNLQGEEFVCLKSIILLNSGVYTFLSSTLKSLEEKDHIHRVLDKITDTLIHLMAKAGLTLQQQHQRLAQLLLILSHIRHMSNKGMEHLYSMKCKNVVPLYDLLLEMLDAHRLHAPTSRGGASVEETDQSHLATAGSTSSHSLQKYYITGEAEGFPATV
UniProt P19785: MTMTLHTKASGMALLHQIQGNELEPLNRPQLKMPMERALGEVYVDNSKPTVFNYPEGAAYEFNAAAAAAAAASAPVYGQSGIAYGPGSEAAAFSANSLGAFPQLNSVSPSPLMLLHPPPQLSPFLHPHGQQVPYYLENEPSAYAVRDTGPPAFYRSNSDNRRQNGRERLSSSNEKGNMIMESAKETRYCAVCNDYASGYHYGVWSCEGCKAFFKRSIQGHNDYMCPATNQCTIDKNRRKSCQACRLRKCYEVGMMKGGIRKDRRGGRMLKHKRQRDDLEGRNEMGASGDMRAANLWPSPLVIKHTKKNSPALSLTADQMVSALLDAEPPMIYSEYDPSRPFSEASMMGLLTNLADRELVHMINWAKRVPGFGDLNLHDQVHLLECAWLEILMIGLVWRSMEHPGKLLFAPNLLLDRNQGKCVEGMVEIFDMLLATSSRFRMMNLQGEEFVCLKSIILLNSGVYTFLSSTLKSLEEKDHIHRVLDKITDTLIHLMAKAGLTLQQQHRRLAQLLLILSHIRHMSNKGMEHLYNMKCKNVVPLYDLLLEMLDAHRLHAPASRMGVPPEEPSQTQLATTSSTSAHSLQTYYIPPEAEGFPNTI

How the values were obtained:
[1] = target: RIZ1 (PR+ protein form coded by the PRDM2 gene), human, endogenous in TCam-2 cells (human (endogenous in TCam-2)) (UniProt Q13029); test: co-IP; 1 mg total protein cell lysate of GC-1 or TCam-2 cells incubated with 4 µg rabbit polyclonal anti-RIZ N-20, immunocomplexes pulled down with anti-rabbit IgG beads, Western blot for RIZ and ERα; cells treated with 100 nM 17β-estradiol (E2) for 0, 5, 15, 30 or 60 minutes
[2] = target: RIZ1 (PR+ protein form coded by the PRDM2 gene), human, endogenous in TCam-2 cells (human (endogenous in TCam-2)) (UniProt Q13029); test: condition: only basal condition, cells without E2 treatment; co-IP; as a1, TCam-2 cells in basal condition (no E2 treatment); 1 mg lysate, anti-RIZ N-20, anti-rabbit IgG beads, Western blot for ERα
[3] = target: RIZ1 (PR+ protein form coded by the PRDM2 gene), mouse, endogenous in GC-1 cells (mouse (endogenous in GC-1)) (UniProt A2A7B5); test: co-IP; 1 mg total protein cell lysate of GC-1 or TCam-2 cells incubated with 4 µg rabbit polyclonal anti-RIZ N-20, immunocomplexes pulled down with anti-rabbit IgG beads, Western blot for RIZ and ERα; cells treated with 100 nM 17β-estradiol (E2) for 0, 5, 15, 30 or 60 minutes

binding [1] | binding [2] | binding [3] | Substance
binds | no binding | – | estrogen receptor α (ERα), human, endogenous in TCam-2 cells (from UniProt P03372 1-595)
– | – | binds | estrogen receptor α (ERα), mouse, endogenous in GC-1 cells (from UniProt P19785 1-599)
